{"source": "patent US20190022220A1", "about": "“LIGHT-ACTIVATED ANCHORING OF THERAPEUTIC FACTORS TO TISSUES” (The Board of Trustees of the Leland Stanford Junior …, priority 2016, published 2019)", "experiment": "Western blot of NGF-FITC within corneal stroma", "data": [{"substance": "NGF-FITC: fluorescein-isothiocyanate (FITC)-labeled conjugate of NGF", "values": [{"measurement": "NGF surface concentration on corneal stroma (normalized band intensity)", "setting": "V-CXL coupling vs topical delivery alone", "result": "higher NGF surface concentration"}, {"measurement": "NGF surface concentration on corneal stroma (normalized band intensity)", "setting": "non-photochemical crosslinking vs topical delivery alone", "result": "higher NGF surface concentration"}]}]}
